# Test: taste testing of spilanthol level and source in confectionery
# Type: in vivo
compound,measurement,setting,value
"C/C=C/C=C\CC/C=C/C(=O)NCC(C)C [spilanthol, N-isobutyl-2E,6Z,8E-decatrienamide]",taste at high spilanthol amounts,amounts above about 60 ppm in the confectionery composition,"undesirable bitterness, even burning in some formulations"
same,taste profile and tingling compared to plant extracts,"based on taste testing, vs some comparable plant extracts",cleaner profile and/or less tingling

# — patent US20120040057A1, “CONFECTIONERIES PROVIDING MOUTH-MOISTENING REFRESHMENT” (priority 2009, published 2012)
